Laboratory results published in the supplement of paper PMC4894684.
Where a name gives a salt, the structure may show the parent alone. ± gives the standard deviation of the averaged measurements. This list holds what a sample rich in strong results left over.

System: HFF
Test: uninfected host cell viability relative to vehicle control; higher = less host cell toxicity
Conditions: 5 µM; 72 h; oxygen 21 %
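Also: confluent HFF monolayers, run in parallel with the Toxoplasma growth screen as a host toxicity counterscreen.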

SMILES | uninfected host cell viability [%]
Cc1c(C(=O)NN2CCCCC2)nn(-c2ccc(Cl)cc2Cl)c1-c1ccc(I)cc1 | 104 ± 2.1
Cc1cccc(CCN2CCC(C(=O)c3ccc(NS(C)(=O)=O)cc3)CC2)n1 [E-4031 dihydrochloride] | 89.4 ± 4.9
